In the supplement of paper PMC8256030:
The list shows a part of the results. Repeats in this data set agree poorly, so a single value says little.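 HEK293T cells were given each compound shortly before transfection with a reporter in which red mCherry is followed by the SARS-CoV-2 frameshift element and then GFP in the −1 frame, so GFP appears only after frameshifting.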

How the values were obtained:
[1] = system: SARS-CoV-2 -1 PRF reporter mCherry-FSE-GFP(-1); assay: mCherry (red) intensity as percent of control; higher = higher upstream reporter expression; settings: 10 µM; 24 h; HEK293T
[2] = system: SARS-CoV-2 -1 PRF reporter mCherry-FSE-GFP(-1); assay: percent effect, decrease of GFP/mCherry ratio (-1 PRF reporter) relative to controls; higher = stronger frameshift inhibition; settings: 10 µM; 24 h; HEK293T

Question: Which results are given for `O=C1CC(c2cccc(Br)c2)C(=O)N1` (centres undefined) [brosuximide]?
Answer: mCherry [1]: 103%; percent effect [2]: -4.98%

Question: `CN(C)CCc1c[nH]c2ccc(C[C@H]3COC(=O)N3)cc12` [Zolmitriptan] was tested. Which mCherry [1] did it give?
Answer: 96.7%

Question: And the percent effect [2]?
Answer: 0.619%

Question: Which results are given for `CC[C@H]1OC(=O)C[C@@H](O)[C@H](C)[C@@H](O[C@@H]2O[C@H](C)[C@@H](O[C@H]3C[C@@](C)(O)[C@@H](O)[C@H](C)O3)[C@H](N(C)C)[C@H]2O)[C@@H](CC=O)C[C@@H](C)C(=O)/C=C/C(C)=C/[C@@H]1CO[C@@H]1O[C@H](C)[C@@H](O)[C@@H](OC)[C@H]1OC` [Tylosin]?
Answer: mCherry [1]: 73.4%; percent effect [2]: -9.06%

Question: With `CN1CCC(=C2c3ccccc3CCn3c(C=O)cnc32)CC1` [alcaftadine] as the compound, how does the mCherry [1] read?
Answer: 105%

Question: And the percent effect [2]?
Answer: -0.287%

Question: Which mCherry [1] does the source give for `CCCCOC(=O)c1ccccc1Nc1cccc(C(F)(F)F)c1` [ufenamate] here?
Answer: 95.4%

Question: What about the percent effect [2] of the same compound?
Answer: -3.71%

Question: Which results are given for `CC(=O)c1cc2cccc(OCC(O)CNC(C)C)c2o1` (centres undefined) [befunolol]?
Answer: mCherry [1]: 80.6%; percent effect [2]: -2.91%

Question: For `O=C(NCCNCC(O)COc1ccc(O)cc1)N1CCOCC1` (centres undefined) [Xamoterol hemifumarate], which mCherry [1] is on record?
Answer: 80.9%

Question: What about the percent effect [2] of the same compound?
Answer: -0.125%

Question: For `CC1CCCC(C)N1CCCCNC(=O)C(Oc1ccccc1)c1ccccc1` (centres undefined) [oxiramide], which mCherry [1] is on record?
Answer: 76.1%

Question: And the percent effect [2]?
Answer: -5.37%

Question: `O=C(O[C@@H]1C[C@@H]2C[C@H]3C[C@H](C1)N2CC3=O)c1c[nH]c2ccccc12` [Dolasetron] was tested. Which mCherry [1] did it give?
Answer: 106%

Question: What about the percent effect [2] of the same compound?
Answer: -1.68%

Question: With `CC[N+](CC)(CC)CCOc1ccc(/C=C/c2ccccc2)cc1` [stilonium iodide] as the compound, how does the mCherry [1] read?
Answer: 66.8%

Question: And the percent effect [2]?
Answer: -9.49%

Question: `CC(C)C[C@H](NC(=O)[C@H](Cc1ccccc1)NC(=O)c1cnccn1)B(O)O` [Bortezomib] was tested. Which mCherry [1] did it give?
Answer: 114%

Question: What about the percent effect [2] of the same compound?
Answer: -7.12%

Question: `O=C1C(=O)c2ccccc2C(O)=C1C1CCC(c2ccc(Cl)cc2)CC1` (centres undefined) [atovaquone] was tested. Which mCherry [1] did it give?
Answer: 91.2%

Question: And the percent effect [2]?
Answer: -1.41%

Question: Which mCherry [1] does the source give for `O=C(O)Cc1sc(-c2ccccc2)nc1-c1ccc(Cl)cc1` [fentiazac] here?
Answer: 93.2%

Question: What about the percent effect [2] of the same compound?
Answer: -2.55%

Question: Which results are given for `O=C(O)CN(CCN(CC(=O)O)CC(=O)O)CCN(CC(=O)O)CC(=O)O` [pentetic acid]?
Answer: mCherry [1]: 110%; percent effect [2]: 2.79%

Question: How did the mCherry [1] turn out when `O=C(Nc1cccc(C(F)(F)F)c1)c1cc(Br)cc(Br)c1O` [flusalan] was run?
Answer: 189%

Question: What about the percent effect [2] of the same compound?
Answer: -10.6%

Question: For `N[C@@H](CSCCCO)C(=O)O` [fudosteine], which mCherry [1] is on record?
Answer: 103%

Question: And the percent effect [2]?
Answer: -3.03%

Question: What does the source list for `CN1CCN(C(c2ccccc2)c2ccccc2)CC1` [cyclizine]?
Answer: mCherry [1]: 108%; percent effect [2]: -1.09%
